Reference: the supplement of paper PMC3334620
Whole data set: some 33,000 sequences, median “E-score (-0.5 to 0.5)” near -0.0034, cut for the highest 2% near 0.25. The list shows a part of the results.

target: T1, Yap3 (UniProt P38749); assay: PBM E-score (8-mer binding enrichment) (E-score (-0.5 to 0.5)); higher = stronger / more preferred TF binding; conditions: protein concentration: 100 nM; construct: GST-full length
T1 sequence: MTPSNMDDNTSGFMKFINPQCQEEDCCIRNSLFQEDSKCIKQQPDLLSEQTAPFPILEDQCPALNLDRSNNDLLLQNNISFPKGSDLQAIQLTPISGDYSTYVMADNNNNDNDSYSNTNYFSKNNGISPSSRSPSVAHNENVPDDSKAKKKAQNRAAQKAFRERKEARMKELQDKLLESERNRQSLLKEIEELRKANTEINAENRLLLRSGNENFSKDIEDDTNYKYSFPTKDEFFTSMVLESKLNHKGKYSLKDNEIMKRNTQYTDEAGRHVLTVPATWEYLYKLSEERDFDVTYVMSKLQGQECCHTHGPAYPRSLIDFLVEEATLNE
Procedure: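 Universal 'all 10-mer' protein binding microarrays (Agilent AMADID 015681) probed with GST-tagged S. cerevisiae TFs (full-length or DBD) made by in vitro transcription/translation (PURExpress), about 100-200 nM. Bound TF was detected with fluorescent anti-GST. Each ungapped 8-mer (which stands for itself and its reverse complement) is scored by the PBM enrichment score (E-score), a modified Wilcoxon-Mann-Whitney statistic from -0.5 to +0.5, computed with the Universal PBM Analysis Suite. Scale: above 0.35 generally sequence-specific binding.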

Sequence	PBM E-score
CTTTGGCA	-0.152
AACAGCGA	-0.166
ATGAACAA	0.16
AATAGGCA	0.0693
GAGGCTAC	-0.299
CGAGTTTC	0.131
ACGGCGTG	0.13
AGTGGTTG	0.124
GAAGGACC	-0.254
GAATAGCC	-0.167
ACCTTACC	0.182
CCGCTAGC	-0.0972
TAGCAACA	0.114
GGACGCGA	-0.0224
AGCTGTAT	0.0268
AAGCACCA	-0.178
AATGCCCG	-0.117
ACCAATAG	-0.0827
CCTCTGCC	-0.306
CTCTCCTA	-0.0948
AACATACG	0.183
ATTTGCCG	0.0329

Sequence	PBM E-score
CGAATGTC	0.0563
AGTGCTTG	-0.0485
TCCATGCA	0.0556
CACTCCGA	-0.19
ACTCTACA	-0.12
AGCACGCT	-0.221
ACTGTAGG	0.137
ACGAAGGA	0.0261
CTTAGTAA	0.429
GTTATGGA	0.215
TCTTAAAA	0.163
AAAGGTCG	-0.0514
TCATTAAA	0.258
CTTACGTC	0.0927
GATCATCA	-0.0385
AGGCGACC	-0.238
GCCAGCCC	-0.336
CCATGGAC	-0.0155
CCGTAAAC	0.089
ACAGAAGT	0.00792
ATCGATCA	0.194
TCACCTGA	-0.17

Some of the entries so far, in markdown:

| Sequence | PBM E-score |
| --- | --- |
| CCTCTGCC | -0.306 |
| CTCTCCTA | -0.0948 |
| AACATACG | 0.183 |
| ATTTGCCG | 0.0329 |
| CGAATGTC | 0.0563 |
| AGTGCTTG | -0.0485 |
| TCCATGCA | 0.0556 |
| CACTCCGA | -0.19 |
| ACTCTACA | -0.12 |
| AGCACGCT | -0.221 |
| ACTGTAGG | 0.137 |
| ACGAAGGA | 0.0261 |
| CTTAGTAA | 0.429 |
| GTTATGGA | 0.215 |
| TCTTAAAA | 0.163 |
| AAAGGTCG | -0.0514 |
| TCATTAAA | 0.258 |
| CTTACGTC | 0.0927 |
| GATCATCA | -0.0385 |
| AGGCGACC | -0.238 |
| GCCAGCCC | -0.336 |
| CCATGGAC | -0.0155 |
| CCGTAAAC | 0.089 |
| ACAGAAGT | 0.00792 |
| ATCGATCA | 0.194 |
| TCACCTGA | -0.17 |

The list continues.

Sequence	PBM E-score
CGAGCCTC	-0.184
CCGCAGGA	-0.196
ATCGCGCG	0.155
ACCGAAGC	-0.17
ACGAAGGC	-0.134
ACGCCTCT	-0.0246
CGCCGATA	0.00531
ACATTAGG	-0.0248
GGCCTGAC	-0.145
ACTGGAAA	0.126
CACTGGAA	-0.0182
ATTCTTTC	0.142
GAGCGAGA	0.134
AAGCTCGT	-0.0104
GACAAGCA	-0.14
GCTGTACA	-0.136
AATTTGCG	0.0563
GAACATTC	0.0524
ATGTGGGA	0.0951
CTTGACAA	0.119
GAGGCGAA	0.137
CGAGGGTC	-0.351

Sequence	PBM E-score
GCGGGCCA	-0.166
ATGGCCAA	-0.114
GTGTAATA	0.214
TACATTAA	0.199
AGATTTAG	0.0205
CTCTTGTC	0.0437
ACATGGTA	0.127
AATTATCC	0.133
CCACCGAA	-0.0425
ATTCATGA	0.0399
ATCAAAGG	0.097
ATGAGACC	0.00419
CAAGGGCA	-0.2
ACGCCATC	-0.044
CTATGACA	0.165
GCAGGAAC	-0.0758
CATGCCGG	0.0101
ATACATGC	0.0109
CGCGTTCA	0.174
GTACAACA	0.221
GTACACAA	0.198
AACAGAAA	0.157

Sequence	PBM E-score
ACGATGGC	0.0417
CGTCTTGA	0.0708
TGTGTTAA	0.196
ACCCGAGG	-0.105
AGCGAGGG	-0.171
CGAAAGAA	0.143
AGTGCGAC	-0.113
TACTGGGA	0.108
CTCGTTGC	0.0493
CCATTATA	0.082
ATGGTTTA	0.0249
GCTCTTTA	0.0383
ACATTTAT	0.179
ATGACGAG	0.00121
ATAAATGG	0.195
CGGGATTA	0.0953
ACGGACTC	-0.175
GCAACCCC	-0.288
ACTGAGAA	0.059
CACCTTAG	-0.0796
ATCGTCAA	-0.00648
ATCGTTGA	-0.0043
